From the supplement of paper PMC7830784
“And” between values parts separate entries of the source, which are not always exact repeats. Equal entries are not always repeated. Structures can show the parent of a compound that is named as a salt. This is one part of the list. This data set is noisy: repeats of one test often differ as much as different tests do.

system: Brugia pahangi adult female; assay: motility inhibition on day 3 relative to DMSO vehicle; higher = more active; details: 10 µM; 3 days

SMILES | motility inhibition on day 3
CCCCCC(C)N (stereo not drawn) [tuaminoheptane sulfate] | 59.1%
C[C@H]1[C@@H](O)O[C@@H]2O[C@@]3(C)CC[C@H]4[C@H](C)CC[C@@H]1[C@@]24OO3 [artenimol] | 14.8%
CCn1cc(C(=O)O)c(=O)c2ccc(C)nc21 [nalidixic acid] | < 0%
C#CCN(C)Cc1ccccc1 [Pargyline hydrochloride] | < 0%
CC(=O)OCC(COC(C)=O)OC(C)=O [triacetin] | 4.19%
c1cnc2cc3c(cc2n1)[C@@H]1CNC[C@H]3C1 [Varenicline Tartrate] | 33.6%
CO[C@H]1/C=C/O[C@@]2(C)Oc3c(C)c(O)c4c(c3C2=O)C2=NC3(CCN(CC(C)C)CC3)NC2=C(NC(=O)/C(C)=C\C=C\[C@H](C)[C@H](O)[C@@H](C)[C@@H](O)[C@@H](C)[C@H](OC(C)=O)[C@@H]1C)C4=O | 10.3%
NC(=O)N1c2ccccc2C=Cc2ccccc21 [Carbamazepine] | 9.67%
CN(C)CCN(Cc1cccs1)c1ccccn1 [methapyrilene hydrochloride] | 11.2%
C=C1CC[C@H](O)C/C1=C/C=C1\CCC[C@]2(C)[C@@H]([C@H](C)CCCC(C)(C)O)CC[C@@H]12 [Calcifediol] | 4.65%
O=C([O-])[C@H]1/C(=C/CO)O[C@@H]2CC(=O)N21.[Li+] [clavulanate lithium] | 7.59%
CC(C)C[C@H](NC(=O)[C@@H](Cc1c[nH]c2ccccc12)NC(=O)[C@H](Cc1ccc(O)cc1)NC(=O)[C@H](CO)NC(=O)[C@H](Cc1c[nH]c2ccccc12)NC(=O)[C@H](Cc1c[nH]cn1)NC(=O)[C@@H]1CCC(=O)N1)C(=O)N[C@@H](CCCNC(=N)N)C(=O)N1CCC[C@H]1C(=O)NCC(N)=O [Triptorelin] | < 0%
Nc1nc(=O)c2nc(CNc3ccc(C(=O)N[C@@H](CCC(=O)O)C(=O)O)cc3)cnc2[nH]1 [folic acid] | 4.31% and 16.7%
CC(=O)N[C@@H](CC(C)C)C(=O)O [acetyl-l-leucine] | 5.26%
CC[C@H]1OC(=O)[C@H](C)[C@@H](O[C@H]2C[C@@](C)(OC)[C@@H](O)[C@H](C)O2)[C@H](C)[C@@H](O[C@@H]2O[C@H](C)C[C@H](N(C)C)[C@H]2O)[C@](C)(O)C[C@@H](C)/C(=N\OCOCCOC)[C@H](C)[C@@H](O)[C@]1(C)O [roxithromycin] | 43.7%
CC(C)NCC(O)COc1ccc(COCCOC(C)C)cc1 (stereo not drawn) [bisoprolol fumarate] | 5.06%
O=C1CN2Cc3c(ccc(Cl)c3Cl)N=C2N1 [anagrelide hydrochloride] | 25.7%
CC(C)C(=O)OCC(=O)[C@@]12O[C@H](C3CCCCC3)O[C@@H]1C[C@H]1[C@@H]3CCC4=CC(=O)C=C[C@]4(C)[C@H]3[C@@H](O)C[C@@]12C [Ciclesonide] | 11.3%
Nc1nc(Cl)nc2c1ncn2[C@@H]1O[C@H](CO)[C@@H](O)[C@@H]1F [clofarabine] | 13.6%
Nc1nc(Cl)nc2c1ncn2[C@@H]1O[C@H](CO)[C@@H](O)[C@@H]1F [Clofarabine] | < 0%
CC(C)(C)NC[C@H](O)COc1nsnc1N1CCOCC1 [S(-)-Timolol maleate] | 9.16%
CC(C)(C)NC[C@H](O)COc1nsnc1N1CCOCC1 [timolol maleate] | 22.2%
C[C@]12CCC(=O)C=C1CC[C@@H]1[C@@H]2[C@@H](O)C[C@@]2(C)[C@H]1CC[C@]2(O)C(=O)COC(=O)CCC(=O)O [hydrocortisone hemisuccinate] | 31.9%

SMILES | motility inhibition on day 3
O=C(Nc1cccc2c(=O)cc(-c3nnn[nH]3)oc12)c1ccc(OCCCCc2ccccc2)cc1 [Pranlukast] | < 0%
NCCCC[C@H](N[C@@H](CCc1ccccc1)C(=O)O)C(=O)N1CCC[C@H]1C(=O)O [lisinopril] | 23.4%
CO/N=C(\C(=O)N[C@@H]1C(=O)N2C(C(=O)O)=C(CSc3nc(=O)c(O)nn3C)CS[C@H]12)c1csc(N)n1 [ceftriaxone sodium trihydrate] | 5.82%
CO/N=C(\C(=O)N[C@@H]1C(=O)N2C(C(=O)O)=C(CSc3nc(=O)c(O)nn3C)CS[C@H]12)c1csc(N)n1 [Ceftriaxone Disodium Salt Hemiheptahydrate] | 22.9%
CCOC(=O)OC(C)OC(=O)[C@@H]1N2C(=O)[C@@H](NC(=O)[C@H](N)c3ccccc3)[C@H]2SC1(C)C (stereo partly drawn) [bacampicillin hydrochloride] | 11.4%
COC1=C(OC)C(=O)C(CCCCCCCCCCO)=C(C)C1=O [idebenone] | 13.6%
CCOC(=O)[C@H](CCc1ccccc1)N[C@H]1CCc2ccccc2N(CC(=O)O)C1=O [benazepril hydrochloride] | < 0%
Cc1cc(=O)oc2cc(O)ccc12 [hymechrome] | < 0%
Cc1nc2ccccc2n1Cc1ccc(Cl)cc1 [chlormidazole] | 66.6%
O=C(NCc1ccccc1)OCCO [buramate] | 10.1%
CCCN[C@H]1CCc2nc(N)sc2C1 [Pramipexole] | 5.4%
CCOc1ccc(/C=C2\NCCc3cc(OCC)c(OCC)cc32)cc1OCC [Drotaverine] | < 0%
CC(=O)c1ccc(S(=O)(=O)NC(=O)NC2CCCCC2)cc1 [Acetohexamide] | 16.1%
CCCCC[C@H](O)/C=C/[C@@H]1[C@@H](C/C=C\CCCC(=O)O)[C@@H](O)C[C@H]1O [Dinoprost] | < 0%
CCCNC(C)C(=O)Nc1ccccc1C (stereo not drawn) [prilocaine hydrochloride] | 30.3%
COc1ccc(CN(CCN(C)C)c2ccccn2)cc1 [Pyrilamine maleate] | 27.2%
Nc1ncn([C@@H]2O[C@H](CO)[C@@H](O)[C@H]2O)c(=O)n1 [5-azacytidine] | < 0%
CC(COc1ccccc1)N(CCCl)Cc1ccccc1 (stereo not drawn) [Phenoxybenzamine hydrochloride] | 7.63%
Cc1scc2c1N(C(=O)CN1CCN(C)CC1)c1ccccc1NC2=O [Telenzepine dihydrochloride] | 12.2%
c1ccc(C2CN3CCSC3=N2)cc1 (stereo not drawn) [tetramizole hydrochloride] | < 0%
C=C1c2cccc(O)c2C(=O)C2=C(O)[C@]3(O)C(=O)C(C(N)=O)=C(O)[C@@H](N(C)C)[C@@H]3[C@@H](O)[C@H]12 [methacycline hydrochloride] | < 0%
CC[C@]1(O)C[C@@H]2CN(CCc3c([nH]c4ccccc34)[C@@](C(=O)OC)(c3cc4c(cc3OC)N(C)[C@H]3[C@@](O)(C(N)=O)[C@H](O)[C@]5(CC)C=CCN6CC[C@]43[C@@H]65)C2)C1 | < 0%
CO[C@@]12[C@H](COC(N)=O)C3=C(C(=O)C(C)=C(N)C3=O)N1C[C@@H]1N[C@@H]12 [mitomycin c] | 10%

SMILES | motility inhibition on day 3
CC(C(=O)O)c1ccc(N2Cc3ccccc3C2=O)cc1 (stereo not drawn) [indoprofen] | 25%
CC1=Nc2ccc(Cl)cc2S(=O)(=O)N1 [Diazoxide] | 11.8%
C=C1/C(=C\C=C2/CCC[C@]3(C)[C@@H]([C@H](C)/C=C/[C@@H](O)C4CC4)CC[C@@H]23)C[C@@H](O)C[C@@H]1O [Calcipotriene] | 0.648%
Cc1ccc(Cl)c(Nc2ccccc2C(=O)O)c1Cl [sodium meclofenamate] | 5.37%
CN(C)CCOc1ccc(/C(=C(/CCCl)c2ccccc2)c2ccccc2)cc1 [toremiphene citrate] | < 0%
CCN1CCN(C(=O)N[C@@H](C(=O)N[C@@H]2C(=O)N3C(C(=O)O)=C(CSc4nnnn4C)CS[C@H]23)c2ccc(O)cc2)C(=O)C1=O [Cefoperazone sodium salt] | 19.3%
C[C@H]1C[C@H]2[C@@H]3CCC4=CC(=O)C=C[C@]4(C)[C@@]3(F)[C@@H](O)C[C@]2(C)[C@@]1(O)C(=O)CO [betamethasone] | 39.8%
Oc1ccc(OCc2ccccc2)cc1 [monobenzone] | 12.6%
CC(C)(Oc1ccc(C(=O)c2ccc(Cl)cc2)cc1)C(=O)O [fenofibric acid] | 7.42%
CCCCNc1ccc(C(=O)OCCOCCOCCOCCOCCOCCOCCOCCOCCOC)cc1 [benzonatate] | 0.878%
CCn1nc(C(=O)O)c(=O)c2cc3c(cc21)OCO3 [cinoxacin] | 0.11%
Cc1cc(/C=C/c2ccc3cc(N(C)C)ccc3[n+]2C)c(C)n1-c1ccccc1 [pyrvinium pamoate] | 95.8%
CC1(C)O[C@@H]2C[C@H]3[C@@H]4CCC5=CC(=O)C=C[C@]5(C)[C@@]4(F)[C@@H](O)C[C@]3(C)[C@]2(C(=O)CO)O1 [triamcinolone acetonide] | < 0%
Cc1cnc(NC(=O)C2=C(O)c3ccccc3S(=O)(=O)N2C)s1 [meloxicam] | < 0%
O=C(O)CCCc1ccccc1 [phenylbutyric acid] | < 0%
O=C(O)COC(=O)Cc1ccccc1Nc1c(Cl)cccc1Cl [aceclofenac] | 23.4%
C[C@@H]1C[C@H]2[C@@H]3CCC4=CC(=O)C=C[C@]4(C)[C@@]3(F)[C@@H](O)C[C@]2(C)[C@@]1(O)C(=O)CO [dexamethasone] | 2.39%
OC1(c2ccc(Cl)c(C(F)(F)F)c2)CCN(CCCC(c2ccc(F)cc2)c2ccc(F)cc2)CC1 [penfluridol] | 16.9%
CCN1CCC[C@H]1CNC(=O)c1c(OC)ccc(Br)c1OC [Remoxipride] | < 0%
COc1cc(NS(C)(=O)=O)ccc1Nc1c2ccccc2nc2ccccc12 [amsacrine] | 8.09%
CCN1CCN(c2cc3c(cc2F)c(=O)c(C(=O)O)cn3C2CC2)CC1 [enrofloxacin] | 2.46%
O=C1C2CC3CC1CC(O)(C3)C2 [idramantone] | 0.446%

17 entries from above in another layout:
SMILES	motility inhibition on day 3
CCN1CCN(C(=O)N[C@@H](C(=O)N[C@@H]2C(=O)N3C(C(=O)O)=C(CSc4nnnn4C)CS[C@H]23)c2ccc(O)cc2)C(=O)C1=O [Cefoperazone sodium salt]	19.3%
C[C@H]1C[C@H]2[C@@H]3CCC4=CC(=O)C=C[C@]4(C)[C@@]3(F)[C@@H](O)C[C@]2(C)[C@@]1(O)C(=O)CO [betamethasone]	39.8%
Oc1ccc(OCc2ccccc2)cc1 [monobenzone]	12.6%
CC(C)(Oc1ccc(C(=O)c2ccc(Cl)cc2)cc1)C(=O)O [fenofibric acid]	7.42%
CCCCNc1ccc(C(=O)OCCOCCOCCOCCOCCOCCOCCOCCOCCOC)cc1 [benzonatate]	0.878%
CCn1nc(C(=O)O)c(=O)c2cc3c(cc21)OCO3 [cinoxacin]	0.11%
Cc1cc(/C=C/c2ccc3cc(N(C)C)ccc3[n+]2C)c(C)n1-c1ccccc1 [pyrvinium pamoate]	95.8%
CC1(C)O[C@@H]2C[C@H]3[C@@H]4CCC5=CC(=O)C=C[C@]5(C)[C@@]4(F)[C@@H](O)C[C@]3(C)[C@]2(C(=O)CO)O1 [triamcinolone acetonide]	< 0%
Cc1cnc(NC(=O)C2=C(O)c3ccccc3S(=O)(=O)N2C)s1 [meloxicam]	< 0%
O=C(O)CCCc1ccccc1 [phenylbutyric acid]	< 0%
O=C(O)COC(=O)Cc1ccccc1Nc1c(Cl)cccc1Cl [aceclofenac]	23.4%
C[C@@H]1C[C@H]2[C@@H]3CCC4=CC(=O)C=C[C@]4(C)[C@@]3(F)[C@@H](O)C[C@]2(C)[C@@]1(O)C(=O)CO [dexamethasone]	2.39%
OC1(c2ccc(Cl)c(C(F)(F)F)c2)CCN(CCCC(c2ccc(F)cc2)c2ccc(F)cc2)CC1 [penfluridol]	16.9%
CCN1CCC[C@H]1CNC(=O)c1c(OC)ccc(Br)c1OC [Remoxipride]	< 0%
COc1cc(NS(C)(=O)=O)ccc1Nc1c2ccccc2nc2ccccc12 [amsacrine]	8.09%
CCN1CCN(c2cc3c(cc2F)c(=O)c(C(=O)O)cn3C2CC2)CC1 [enrofloxacin]	2.46%
O=C1C2CC3CC1CC(O)(C3)C2 [idramantone]	0.446%

Looked up above.
Under motility inhibition on day 3, NCCCC[C@H](N[C@@H](CCc1ccccc1)C(=O)O)C(=O)N1CCC[C@H]1C(=O)O [lisinopril] is entered as 23.4%
Under motility inhibition on day 3, CC(C(=O)O)c1ccc(N2Cc3ccccc3C2=O)cc1 (stereo not drawn) [indoprofen] is entered as 25%
